Publication PMC7039973
No constants are given. Whether binding was seen depends on the method and setting. In cells and extracts the contact can be indirect. These calls come from enrichment with a bait or labelling near it, and not all partners need be listed.

Biological target: T1, Protein S100-A16, overexpressed from lentivirus (human) (UniProt Q96FQ6)
T1 sequence: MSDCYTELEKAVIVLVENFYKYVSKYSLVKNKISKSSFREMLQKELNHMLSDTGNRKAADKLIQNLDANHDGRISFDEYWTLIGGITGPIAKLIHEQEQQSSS
Experiment: affinity purification with mass spectrometry; HK-2 cells stably overexpressing S100A16 or scramble-transduced, lysed with RIPA; lysates immunoprecipitated with anti-S100A16 antibody; LC-MS/MS (LTQ-Orbitrap)

B1: EF-hand domain-containing protein D2 (protein, UniProt Q96C19 1-240)
chain: MATDELATKLSRRLQMEGEGGGETPEQPGLNGAAAAAAGAPDEAAEALGSADCELSAKLLRRADLNQGIGEPQSPSRRVFNPYTEFKEFSRKQIKDMEKMFKQYDAGRDGFIDLMELKLMMEKLGAPQTHLGLKNMIKEVDEDFDSKLSFREFLLIFRKAAAGELQEDSGLCVLARLSEIDVSSEGVKGAKSFFEAKVQAINVSSRFEEEIKAEQEERKKQAEEMKQRKAAFKELQSTFK
binding: binds

B2: Isoform 4 of Protein MRVI1 (protein, UniProt Q9Y6F6-4 1-903)
chain: MGMDLTCPFGISPACGAQASWSIFGADAAEVPGTRGHSQQEAAMPHIPEDEEPPGEPQAAQSPAGQGPPAAGVSCSPTPTIVLTGDATSPEGETDKNLANRVHSPHKRLSHRHLKVSTASLTSVDPAGHIIDLVNDQLPDISISEEDKKKNLALLEEAKLVSERFLTRRGRKSRSSPGDSPSAVSPNLSPSASPTSSRSNSLTVPTPPGLDVCSGPPSPLPGAPPQKGDEADVSSPHPGEPNVPKGLADRKQNDQRKVSQGRLAPRPPPVEKSKEIAIEQKENFDPLQYPETTPKGLAPVTNSSGKMALNSPQPGPVESELGKQLLKTGWEGSPLPRSPTQDAAGVGPPASQGRGPAGEPMGPEAGSKAELPPTVSRPPLLRGLSWDSGPEEPGPRLQKVLAKLPLAEEEKRFAGKAGGKLAKAPGLKDFQIQVQPVRMQKLTKLREEHILMRNQNLVGLKLPDLSEAAEQEKGLPSELSPAIEEEESKSGLDVMPNISDVLLRKLRVHRSLPGSAPPLTEKEVENVFVQLSLAFRNDSYTLESRINQAERERNLTEENTEKELENFKASITSSASLWHHCEHRETYQKLLEDIAVLHRLAARLSSRAEVVGAVRQEKRMSKATEVMMQYVENLKRTYEKDHAELMEFKKLANQNSSRSCGPSEDGVPRTARSMSLTLGKNMPRRRVSVAVVPKFNALNLPGQTPSSSSIPSLPALSESPNGKGSLPVTSALPALLENGKTNGDPDCEASAPALTLSCLEELSQETKARMEEEAYSKGFQEGLKKTKELQDLKEEEEEQKSESPEEPEEVEETEEEEKGPRSSKLEELVHFLQVMYPKLCQHWQVIWMMAAVMLVLTVVLGLYNSYNSCAEQADGPLGRSTCSAAQRDSWWSSGLQHEQPTEQ
binding: binds
